Experimental data taken from article PMC10163288.
The other results are listed elsewhere or left out.

B1: il2ra_site1_1z92_sap_16_mot_HHH_b2_00827_000000099_0001_20_37_H_._HHH_b1_07533_0001_0000500048_0000001_0_0001 (protein)
chain: SVEEELRELIRELGNPELEELAELIIRHLEANPDDKALRFALEQLLRKLKRDPEAAEKIARRLAH
B2: il2ra_site1_2b5i_normal_mot_HHH_b2_04910_000000118_0001_1_19_H_._HHH_b1_06862_af2_0001_0000200038_0000001_0_af2pred_dldesign_0_af2pred (protein)
chain: SSSSNKAEEVRRLFLEADKLFQAGKEEEAKKKLEEALKKAEELGLNLMKKLIELALKQLESSSSS
B3: il2ra_site1_2b5i_normal_mot_0921d739bb7547bb6fa23329820ad62a_0001_000000012_0001_54_65_H_._HHH_b1_08235_af2_0001_0000500032_0000001_0_af2pred_dldesign_0_af2pred (protein)
chain: SSSSSLEQFKRLEEIYKELLELGDDEAAEEVERLYEEFLKTKDPSLLKRAEELLRKAREKSSSSS
B4: il2ra_site1_2b5i_normal_mot_f5ff40796168375b462bec8614a1db4a_0001_1_000000138_0001_53_65_H_._HHH_b2_01775_0001_0000500027_0000001_0_af2pred_dldesign_0_af2pred (protein)
chain: SSSSSSEKRELIQALIDEAKKEEDKRLAKRLLLLALRLARKHNDEELIAEIEALLKELESSSSSS
B5: il2ra_site2_3nfp_normal_mot_ems_3hM_1278_af2_000000151_0001_43_60_H_._HHH_b1_04271_0001_0000300023_0000001_0 (protein)
chain: SSSSDEERVEELIEEAEELLKKGNPEEAKKVLEEASQLAYRARDSELFMLLAELLLLIAQSSSSS
B6: il2ra_site1_2b5i_normal_mot_HHH_b1_01495_af2_000000272_0001_42_56_H_._HHH_b2_02303_af2_0001_0000300027_0000001_0_af2pred_dldesign_0_af2pred (protein)
chain: SSSSSPEYDKVYDLFNKALEAKRAGKKEEAKRLLEEALELAKKIGDKVAVEDLEYLLSKLSSSSS
B7: il2ra_site2_3nfp_normal_mot_HHH_b2_07840_000000026_0001_18_34_H_._HHH_b1_01318_0001_0000300019_0000001_1_af2pred_0001_1_af2pred_swapped (protein)
chain: SSSSSSEEVKELLRRAEELLERGDPHRAFAVLVLAFELADEEGDEELKREIRRVSLEVADSSSSS
B8: il2ra_site1_1z92_sap_15_mot_HHH_b1_08449_000000162_0001_23_39_H_._HHH_b2_04319_af2_0001_0000100006_0000001_0_0001_af2pred_0001_af2pred_1 (protein)
chain: SSSSDERLRRIQHLFEKALRVEDEEEVEELFREAEELAEELGSEELERLLRRALKLRKESHSSSS
B9: il2ra_site1_2b5i_sap_23_mot_1f7ad80a01f6a0ac92445803fe988700_0001_000000145_0001_1_14_H_._HHH_b2_00866_0001_0000100006_0000001_0_0001_af2pred_dldesign_0_af2pred (protein)
chain: SSSSSDDDQYKELVDALLEEARTIEDPLRRRQILLLARRVAKKGGNPELIARVEAVLAELSSSSS
B10: il2ra_site2_2erj_sap_26_mot_HHH_b2_07015_000000077_0001_40_57_H_._HHH_b1_02157_0002_0000200034_0000001_0_0001_af2pred_0001_1_af2pred_swapped (protein)
chain: SSSSSDEQEEAERAASRVIELFLEGNPEEAERLLEELEKELEEAGNERLLKFVKSLLSFLSSSSS
B11: il2ra_site1_2b5i_sap_23_mot_0e5a94e4a5addaac739760efb25f0f5d_0001_000000208_0001_18_32_H_._ems_3hC_1310_0001_0001_0000100003_0000001_0_0001_af2pred_0001_af2pred … (protein)
chain: SSSSSEAHERAAKIVDELAEEFGLNAEELNLLVRLAVKLIWRGVSPEEIEEILEEFARQLSSSSS
B12: il2ra_site2_3nfp_sap_14_mot_HHH_b2_05442_af2_000000054_0001_40_54_H_._HHH_b2_08272_0001_0000300028_0000001_0_0001_af2pred_0001_1_af2pred_swapped (protein)
chain: SSSSSDERERRRAVESALRLAKRISDEEELRNALEFAKAVALAGNDPELEELVREVEEELSSSSS
B13: il2ra_site2_3nfp_normal_mot_HHH_b1_03966_000000254_0001_1_19_H_._HHH_eva_0362_af2_0001_0000200008_0000001_0 (protein)
chain: STPIEEVIKLAEEALEALLAAGLIDPEEAQEWKELLEEAEEKGDEELAHRLAFEIYKILRKHNSS
B14: il2ra_site2_2erj_normal_mot_HHH_b1_00839_000000020_0001_43_57_H_._HHH_b1_00666_0001_0000100001_0000001_0 (protein)
chain: SSSSDERTEEVSEIVARAIELFRRGNPEEARKILEEALRLAEENNDEFLARFLEFALRYASSSSS
B15: il2ra_site2_2erj_sap_22_mot_HHH_b2_07386_000000253_0001_42_56_H_._HHH_b2_01916_0001_0000100007_0000001_0_0001 (protein)
chain: SSSSSDEEFEEVAELLARAAHVRDEREFRELLKEAEELAEEANSEFAERYIRFARRHFGSSSSSS
B16: il2ra_site1_2b5i_sap_14_mot_HHH_b2_04463_000000268_0001_43_57_H_._HHH_b1_07611_0001_0000200012_0000001_0_0001_af2pred_dldesign_0_af2pred (protein)
chain: SSSSSSPEERRKEVEKLIEEAKKLEDPFERSKTLFKALWLALALKDPELVAKVKKVYDELSSSSS
B17: il2ra_site2_2erj_sap_23_mot_HHH_b1_06078_000000236_0001_23_39_H_._HHH_b2_00884_0001_0000300007_0000001_0_0001_af2pred_0001_af2pred (protein)
chain: SSSSDEEEERVEELLKQIRELYEKGDFEEVSRLLQEITEIAYKSNNPELLRLLHELLEELTSSSS
B18: il2ra_site1_3nfp_normal_mot_HHH_b1_01159_af2_000000075_0001_1_20_H_._HHH_b1_00388_af2_0001_0000200007_0000001_0_af2pred_0001_af2pred_1 (protein)
chain: SSSSDERSKRVQELLEEAARLFQNGDPEEAREVLEEALRLAEELGNPAARKFIEATLRTASSSSS
B19: il2ra_site2_3nfp_normal_mot_HHH_b2_06150_000000217_0001_39_53_H_._HHH_b1_06172_0001_0000100008_0000001_0 (protein)
chain: SSSSSEYKERIEELLEELRELLERNDEERFREVSAEIVHLVFEARDSELFMLLAELLYKFASSSS
B20: il2ra_site2_3nfp_normal_mot_HHH_b1_01086_000000225_0001_20_36_H_._HHH_b2_00915_0001_0000400033_0000001_0_af2pred_0001_1_af2pred_swapped (protein)
chain: SSSSSDEELKEEVEELLEEAKKIDDPHERFAVLAEAFTLAVENNDPELEELVRRVARELSSSSSS
B21: il2ra_site2_3nfp_normal_mot_HHH_b2_01155_000000159_0001_38_52_H_._HHH_b2_03822_0001_0000600040_0000001_0 (protein)
chain: SSSSSSEDQERVEELLERAEKTSDPEERERLLAEALRIAYEAGDSELFMLVAEVAFELRQSSSSS
B22: il2ra_site2_2erj_normal_mot_8a316d4779eb53efc793250774d75e68_0001_af2_000000043_0001_18_32_H_._HHH_b2_02886_af2_0001_0001200029_0000001_0 (protein)
chain: SSSSDEEEVEKLLEEAKKLEEEGNPEEAASVVIEAALIAARAGSPLFEEASRIFEELFRLLSSSS
B23: il2ra_site2_2erj_normal_mot_HHH_b2_05720_000000165_0001_1_18_H_._HHH_b1_08552_af2_0001_0000600018_0000001_0 (protein)
chain: SSSSSELEELARRIVEHAVEAVGLSEEQKEKLEELAEELVERGLSQEEIARELFRLALRLGSSSS
B24: il2ra_site1_2b5i_sap_12_mot_3116615af0ee64d731c1c85d8523bf51_0001_000000216_0001_15_32_H_._30473498bc9c9bc4038a1594c8f83366_0001_af2_0001_0000100002_0000001_0_0 … (protein)
chain: SSSDLRELDRFAAEVVDRLAEELGLDSEQYNLLLRVAVEVIWRGLSEEEIKEILERVAEELSSSS

molecular target: il2ra, P01589; test: yeast display titration

Apparent Kd, inactive:
B1 no binding seen
B2 no binding seen
B3 no binding seen
B4 no binding seen
B5 no binding seen
B6 no binding seen
B7 no binding seen
B8 no binding seen
B9 no binding seen
B10 no binding seen
B11 no binding seen
B12 no binding seen
B13 no binding seen
B14 no binding seen
B15 no binding seen
B16 no binding seen
B17 no binding seen
B18 no binding seen
B19 no binding seen
B20 no binding seen
B21 no binding seen
B22 no binding seen
B23 no binding seen
B24 no binding seen

Pulled one by one from the entries so far, two records:
Apparent Kd, inactive:
B7 no binding seen
B8 no binding seen
